For assay [1], the target named is T1, FLAG-tagged Nesprin-4 with the WD > AA mutation (Nesp4^AA) (mouse) (UniProt Q8CII8).
T1 sequence: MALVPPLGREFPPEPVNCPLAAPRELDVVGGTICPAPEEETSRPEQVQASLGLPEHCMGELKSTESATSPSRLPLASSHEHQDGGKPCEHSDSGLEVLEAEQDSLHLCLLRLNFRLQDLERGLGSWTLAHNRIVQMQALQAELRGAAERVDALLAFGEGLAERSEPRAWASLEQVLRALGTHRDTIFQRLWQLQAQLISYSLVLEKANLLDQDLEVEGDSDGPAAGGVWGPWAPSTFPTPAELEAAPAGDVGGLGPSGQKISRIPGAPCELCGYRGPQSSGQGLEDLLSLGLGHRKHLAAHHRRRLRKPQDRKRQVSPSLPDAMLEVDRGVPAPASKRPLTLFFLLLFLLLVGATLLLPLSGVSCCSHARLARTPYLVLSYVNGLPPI
The assay is described as follows: co-IP; HEK293 cells transfected with FLAG-tagged Nesprin-4 (WT or AA) or an empty FLAG control, lysed in RIPA buffer 48 h later; anti-FLAG M2 beads, 1-2 h at 4°C; western blot probed with anti Kif5b.

The chains behind the UniProt entries cited, without tags or fusion partners.
UniProt P33176: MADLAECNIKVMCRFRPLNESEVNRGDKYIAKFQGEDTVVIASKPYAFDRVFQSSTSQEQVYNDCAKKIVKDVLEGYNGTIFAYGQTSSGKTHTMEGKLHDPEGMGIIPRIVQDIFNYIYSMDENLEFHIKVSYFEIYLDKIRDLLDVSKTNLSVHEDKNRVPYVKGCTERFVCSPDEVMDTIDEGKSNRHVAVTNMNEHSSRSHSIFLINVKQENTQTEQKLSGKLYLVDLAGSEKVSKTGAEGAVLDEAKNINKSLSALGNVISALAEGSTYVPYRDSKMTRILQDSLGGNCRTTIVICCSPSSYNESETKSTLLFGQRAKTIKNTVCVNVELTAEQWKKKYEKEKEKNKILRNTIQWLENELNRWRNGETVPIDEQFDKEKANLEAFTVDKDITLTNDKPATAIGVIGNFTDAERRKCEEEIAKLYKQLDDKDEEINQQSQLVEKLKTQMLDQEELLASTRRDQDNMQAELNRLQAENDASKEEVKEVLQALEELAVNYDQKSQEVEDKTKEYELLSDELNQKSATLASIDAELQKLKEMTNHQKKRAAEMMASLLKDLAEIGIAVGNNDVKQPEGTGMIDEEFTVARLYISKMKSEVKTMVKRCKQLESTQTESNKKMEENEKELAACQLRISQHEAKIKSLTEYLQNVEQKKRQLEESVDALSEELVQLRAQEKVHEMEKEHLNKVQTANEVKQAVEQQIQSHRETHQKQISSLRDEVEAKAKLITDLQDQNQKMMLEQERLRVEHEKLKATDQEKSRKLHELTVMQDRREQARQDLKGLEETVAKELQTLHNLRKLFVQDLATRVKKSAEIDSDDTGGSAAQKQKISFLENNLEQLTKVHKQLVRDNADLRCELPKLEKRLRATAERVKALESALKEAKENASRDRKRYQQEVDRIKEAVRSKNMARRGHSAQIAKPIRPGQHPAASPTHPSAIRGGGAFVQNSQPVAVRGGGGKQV

Assay [2] deals with T2, FLAG-tagged Nesprin-4 wild type (Nesp4^WT) (mouse) (UniProt Q8CII8).
T2 sequence: T1 sequence with A245W, A246D
The assay is described as above.

Residue numbers refer to the chain shown, from its start. These are yes or no findings as the source states them, for the method shown. In cells and extracts the contact can be indirect. Some entries that bind do so weakly or less than the wild type. Tags and fused reporters may be left off the sequences shown.

“Kif5b (kinesin-1 heavy chain) (from UniProt P33176 1-963)”: the results for the binding entry in assay [1] and in assay [2] were “no binding” and “binds”, respectively.

For the origin of these results see paper PMC9537699.
